Experimental findings from ChEMBL document CHEMBL4483862, “Open-source discovery of chemical leads for next-generation chemoprotective antimalarials” (2018) are described below.

This assay has as its system Plasmodium berghei. The experiment in a line: Luciferase/luciferin-expressing antifolate-resistant parasites were used to infect a culture of HepG2 cells that were pre-incubated with compounds. Infected hepatocytes emit light due to the luciferase reaction. Assay results are presented as the percent inhibition of light emission compared to control. […]. The assay is classed as functional. The following applies: sporozoite, FFLUC_HILL_SLOPE 1.5, FFLUC_R_SQUARED 0.483, PBLUC_HILL_SLOPE 1.09, PBLUC_R_SQUARED 0.604, read-out: LUCIFERASE INFECTION ASSAY - IC50.

A word on the IC50: it is the concentration needed to halve the response being measured. `CCCCc1oc2ccccc2c1C(=O)c1cc(I)c(OCCN(CC)CC)c(I)c1` [AMIODARONE]: the IC50 was greater than 4.84 µM.
